The values below come from PubChem BioAssay AID493014 (National Center for Advancing Translational Sciences (NCATS), 2011).

This is one part of the list. Further columns of the screen follow, without active or inactive calls. The list favours compounds with an active or inconclusive main result. Potencies come from curve fits of mixed quality, noted in brackets.

The experiment in a line: qHTS Assay to Find Inhibitors of Chronic Active B-Cell Receptor Signaling. As to conditions: ABC-DLBCL IkBa-CBG/CBR reporter, luminescence ratio (green luciferase fused to IkBa over red control in TMD8 lymphoma cells), 4 h. A digest of the protocol: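 Concentration-response series (up to 46 uM) were applied to TMD8 dual-reporter cells for 4 h at 37C with doxycycline. Green/red ratio, after filter-overlap correction, defined %Activity; red signal alone was normalised to basal cells and zero luminescence.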
(In qHTS, concentration-response curves come from the screen itself.)

The mark [1] stands for this setting: measured here: CBR red luminescence, cell number.
[2] abbreviates: measured here: IkBa-CBG green luminescence.

For orientation: AC50 means the concentration giving half of the maximal activity seen. For the compound `COc1ccc(CN2CCN(C(=O)c3ccc(S(=O)(=O)N4CCCCCC4)cc3)CC2)cc1`, the AC50 under setting [1] was 2.91 µM [rising, partial curve, poor fit]. For `C=COC(=O)CSc1nc(-c2cccs2)ccc1C#N`, the half-maximal activity concentration (AC50) under setting [1] is 0.447 µM [rising, full curve, poor fit]. Turning to `O=C(C1CCN(S(=O)(=O)c2cnc[nH]2)CC1)N(CCc1ccccc1)Cc1ccccc1`, the AC50 under setting [1] is 0.178 µM [rising, full curve, poor fit]. In the case of `CCOC(=O)c1ccccc1NC(=O)c1c(O)c2ccccc2n(CC)c1=O`, the AC50 under setting [1] was 0.366 µM [falling, full curve, poor fit].

As for `COc1cccc(NC(=O)Nc2nc(-c3ccc(OC)c(OC)c3)cs2)c1`, the AC50 is 4.47 µM [falling, full curve] under setting [1] and 11.2 µM [rising, partial curve, poor fit] under setting [2]. On to `CCc1nnc(NC(=O)CSc2ncc(-c3ccccc3)n2C)s1`, for which the AC50 by setting is: under setting [1], 14.1 µM [rising, single point]; under setting [2], 22.4 µM [falling, single point]. Regarding `O=C(Nc1ccsc1C(=O)O)c1ccccc1`, the AC50 under setting [1] was 5.01 µM [falling, partial curve].

With `CC(C)C[C@H](N)c1nnc(S(=O)(=O)Cc2cccc(F)c2)o1`, the AC50 under setting [1] was 18.4 µM [falling, partial curve, poor fit]. Still for that read-out and setting: then `O=C(Nc1ccc(Cl)cc1)c1cc(S(=O)(=O)N2CCCc3ccccc32)ccc1F`, with 6.31 µM [falling, partial curve].

Consider `CCc1c(C)c2ccc(OCC(=O)OC)cc2oc1=O`, for which, under setting [1], the AC50 was 23.1 µM [rising, single point]. Still for that read-out and setting: then `CCc1cc2c(=O)c(-c3nc4ccccc4n3C)coc2c(CN2CCOCC2)c1O`, with 18.4 µM [falling, single point].

Take `C/C(N)=C(/C#N)C(=O)CSc1nc2ccccc2c(=O)n1CCCO`: the AC50 under setting [1] is 0.00411 µM [rising, full curve, poor fit].

With `Cn1c(=O)n(C)c2cc(NC(=O)C(F)(F)F)ccc21`, the AC50 under setting [1] is 29.1 µM [rising, single point]. For `CCOC(=O)c1c(C)[nH]c(C)c1S(=O)(=O)N1CCCC(C(=O)NCc2ccc(C)cc2)C1` (centres undefined), under setting [1], the AC50 is 5.01 µM [rising, full curve]. For `CCCCCc1cccnc1`, under setting [1], the AC50 was 11.2 µM [falling, partial curve, poor fit]. With `O=C(Nc1ccc(N2CCCCCC2)cc1)c1cccc(S(=O)(=O)N2CCOCC2)c1`, under setting [1], the AC50 was 14.6 µM [falling, partial curve, poor fit]. Consider `CCOc1ccc(C2=C(C(=O)CC)Sc3nncn3N2C(=O)CC)cc1`, for which the half-maximal activity concentration (AC50) is, setting by setting: under setting [1], 35.5 µM [rising, partial curve, poor fit]; under setting [2], 35.5 µM [falling, single point]. On to `CCC(CC)NC(=O)C1CCN(c2ccc(S(=O)(=O)N3CCOCC3)cc2[N+](=O)[O-])CC1`, for which the AC50 under setting [1] was 1.3 µM [rising, full curve, poor fit]. Still for that read-out and setting: in the case of `C#CCSc1n[nH]c(-c2ccco2)n1` it was 1.12 µM [rising, partial curve]; in that of `O=S(=O)(Nc1ncccn1)c1ccc(Nc2ncnc3ccccc23)cc1`, 29.1 µM [rising, single point]; in that of `COc1ccc(CNC(=O)CN=C2NC(=O)C(c3ccccc3)(c3ccccc3)N2)cc1`, 16.4 µM [rising, partial curve, poor fit]. Consider `COc1ccc(OCC(=O)Nc2ccccc2N2CCCCC2)cc1`, for which the half-maximal activity concentration (AC50) was 20 µM [rising, single point] under setting [1] and 22.4 µM [falling, single point] under setting [2]. For the compound `COc1cccc(CNC(=O)c2ccc3c(c2)N(C)CCS3)c1OC`, the AC50 under setting [1] was 5.62 µM [falling, partial curve]. For `Cc1ccc(S(=O)(=O)CCC(=O)OCC(=O)Nc2cc(C)on2)cc1`, under setting [1], the AC50 was 35.5 µM [falling, single point]. `Cc1ccc2c(c1)-n1c(nc3ccccc3c1=O)C(Cc1ccc(O)cc1)NC2=O` (centres undefined): the AC50 under setting [1] was 16.4 µM [rising, partial curve]. Same read-out and setting: then `O=C(c1cccnc1NCc1ccccc1)N1CCOCC1`, with 29.1 µM [rising, single point]. The same measure, in the same setting: in the case of `Cc1cc(C)c(C#N)c(OCc2ccc(Cl)nc2)n1` it was 12.6 µM [rising, partial curve].

On to `Clc1ccc(N=c2ssnc2Cl)cc1`, for which the AC50 under setting [1] was 14.6 µM [falling, single point]. As for `COc1ccc2c(c1)C(c1ccc(C)o1)=NNC(c1ccccc1)=N2`, under setting [1], the AC50 is 10 µM [falling, partial curve].

As to `COC(=O)c1ccccc1NC(=O)NCCc1ccc(OC)c(OC)c1`, the AC50 under setting [1] was 35.5 µM [falling, single point]. The same measure, in the same setting: then `C=CCn1c(-c2sc3nc(C)cc(C)c3c2N)n[nH]c1=S`, with 10 µM [rising, partial curve, poor fit]; and `CCOc1ccc(-c2n[nH]c(C)c2-c2ccccc2OC)c(O)c1`, with 35.5 µM [falling, single point]. Same read-out and setting: in the case of `O=C(Nc1nccs1)c1cccc(NC(=O)C2CC2)c1` it was 0.92 µM [falling, partial curve]. Regarding `COCCNC(=S)NN=C1CCCCC1`, the AC50 is 35.5 µM [falling, single point] under setting [1] and 25.1 µM [falling, single point] under setting [2]. With `O=C(CCCn1c(=S)[nH]c2cc3c(cc2c1=O)OCO3)NCc1ccccc1Cl`, the AC50 under setting [1] is 3.16 µM [falling, single point]. Take `CC(C)c1ccc(CNNC(=O)c2ccccc2)cc1`: the AC50 under setting [1] is 10 µM [falling, partial curve, poor fit]. As for `CCOC(=O)c1cnn(-c2nc(-c3ccccc3)cs2)c1C(F)(F)F`, the AC50 under setting [1] was 22.4 µM [rising, single point].

`Cc1cccc(NC(=S)NNC(=O)Cc2ccccc2)c1`: under setting [1], the half-maximal activity concentration (AC50) is 25.9 µM [rising, single point]. Consider `Cc1ccc(NC(=O)CSc2nc(N)c(-c3ccccc3)c(=O)[nH]2)cc1Cl`, for which, under setting [1], the AC50 is 15.8 µM [rising, single point]. Take `Cc1ccc2nc(NC(=S)NC(=O)c3ccco3)sc2c1`: the AC50 under setting [1] is 14.6 µM [falling, partial curve, poor fit]. As for `Cc1nnc(-c2cccc(Br)c2)c2cn(-c3cccc(Br)c3)nc12`, under setting [1], the AC50 was 15.8 µM [rising, partial curve, poor fit]. On the same count and under the same terms, in the case of `CCOC(=O)c1c(O)cc(C)cc1Nc1ccccc1` it was 11.2 µM [rising, single point]; in that of `Cc1cccn2c(=O)c3cc(C(=O)NC4CCCC4)c(=N)n(C4CCCC4)c3nc12`, 1.84 µM [rising, full curve]. Regarding `Cc1nc(-c2cccc(NC(=O)COc3ccc(Cl)cc3)c2)cs1`, the AC50 under setting [1] is 35.5 µM [falling, single point]. As to `COc1ccc(C(=O)OCC(=O)NCCCc2ccccc2)c(OC)c1`, the AC50 under setting [1] was 35.5 µM [falling, single point]. Turning to `O=C(COc1ccc(Cl)cc1)Nc1ccc2c(c1)CCC2`, the AC50 under setting [1] was 1.84 µM [rising, full curve, poor fit].

With `CCOCCCNC(=O)c1ccc2c(=O)n(Cc3ccc(OC)cc3)c(=O)[nH]c2c1`, the AC50 under setting [1] was 0.1 µM [rising, full curve, poor fit]. The same measure, in the same setting: in the case of `Cc1c(C(=O)O)sc2c1c(=O)n(Cc1ccccc1)c(=O)n2C` it was 35.5 µM [falling, single point].

On to `CCN1CCN(C(=O)NC(c2ccc(C)c(F)c2)C(Cl)Cl)CC1` (centres undefined), for which, under setting [1], the AC50 is 1.41 µM [falling, full curve]. On to `COCCNc1ncnc2c1cnn2Cc1ccc(Cl)cc1`, for which the half-maximal activity concentration (AC50) under setting [1] was 11.6 µM [rising, partial curve, poor fit].

Consider `CCCN1CCN(C(=O)Cn2nc(CC)n3c(cc4sccc43)c2=O)CC1`, for which, under setting [1], the AC50 is 1.12 µM [rising, full curve, poor fit]. In the case of `O=C(N/N=C/c1ccc(N2CCCCC2)o1)C(O)(c1ccccc1)c1ccccc1`, the half-maximal activity concentration (AC50) under setting [1] was 14.6 µM [falling, partial curve]. As for `Cc1cc(C)c2[nH]c(C(=O)Nc3ccc4c(c3)OCO4)cc2c1`, the AC50 under setting [1] is 5.01 µM [falling, full curve, poor fit]. Consider `CSc1nc(-c2ccc(Cl)cc2)nn1C(=O)c1ccco1`, for which the AC50 under setting [1] was 5.8 µM [rising, single point].

In the case of `O=c1[nH]cnc2scc(-c3cccs3)c12`, under setting [1], the AC50 is 20.6 µM [falling, single point].

In the case of `O=C(O)CC(NC(=O)C1CCCCC1)c1ccc(OC2CCCC2)cc1` (centres undefined), the AC50 under setting [1] is 35.5 µM [falling, single point]. For `Cc1cc(NS(=O)(=O)c2ccc(NC(=S)NC(=O)c3ccccc3)cc2)no1`, the AC50 under setting [1] was 16.4 µM [falling, partial curve, poor fit]. Take `CCOC(=O)C1CCCN(S(=O)(=O)c2cc3c4c(c2)CCN4C(=O)CC3)C1` (centres undefined): under setting [1], the half-maximal activity concentration (AC50) is 6.51 µM [rising, single point]. On to `Cc1ccnc(SCC(=O)Nc2cccc(S(=O)(=O)N3CCOCC3)c2)n1`, for which the AC50 under setting [1] was 6.51 µM [rising, partial curve, poor fit].

With `CCc1ccc(-c2ccc(C(=O)O)cc2)nc1`, under setting [1], the AC50 was 7.08 µM [falling, partial curve, poor fit]. Still for that read-out and setting: in the case of `CCOC(=O)CC(=O)CSc1nc2c(c(-c3cccs3)c1C#N)CCC2` it was 29.1 µM [falling, single point]; in that of `COc1ccc(O)c(CN2CCCC(C(=O)Nc3cccc(-n4cccn4)c3)C2)c1` (centres undefined), 28.2 µM [falling, single point]; in that of `O=C1NC(=Nc2ccccc2)S/C1=C/c1cccnc1`, 7.08 µM [falling, partial curve, poor fit]. Take `O=C(Nc1cccnc1)c1cnc2ccccc2n1`: under setting [1], the AC50 is 11.2 µM [falling, partial curve, poor fit].
